No constants are given. Whether binding was seen depends on the method and setting. Some entries that bind do so weakly or less than the wild type. Where a sequence is shown, tags or fusion partners need not be part of it.

The target in this test is T1, Smc4 (wild-type), 3xStrepTagII-tagged (S. cerevisiae), Q12267.
T1 chain: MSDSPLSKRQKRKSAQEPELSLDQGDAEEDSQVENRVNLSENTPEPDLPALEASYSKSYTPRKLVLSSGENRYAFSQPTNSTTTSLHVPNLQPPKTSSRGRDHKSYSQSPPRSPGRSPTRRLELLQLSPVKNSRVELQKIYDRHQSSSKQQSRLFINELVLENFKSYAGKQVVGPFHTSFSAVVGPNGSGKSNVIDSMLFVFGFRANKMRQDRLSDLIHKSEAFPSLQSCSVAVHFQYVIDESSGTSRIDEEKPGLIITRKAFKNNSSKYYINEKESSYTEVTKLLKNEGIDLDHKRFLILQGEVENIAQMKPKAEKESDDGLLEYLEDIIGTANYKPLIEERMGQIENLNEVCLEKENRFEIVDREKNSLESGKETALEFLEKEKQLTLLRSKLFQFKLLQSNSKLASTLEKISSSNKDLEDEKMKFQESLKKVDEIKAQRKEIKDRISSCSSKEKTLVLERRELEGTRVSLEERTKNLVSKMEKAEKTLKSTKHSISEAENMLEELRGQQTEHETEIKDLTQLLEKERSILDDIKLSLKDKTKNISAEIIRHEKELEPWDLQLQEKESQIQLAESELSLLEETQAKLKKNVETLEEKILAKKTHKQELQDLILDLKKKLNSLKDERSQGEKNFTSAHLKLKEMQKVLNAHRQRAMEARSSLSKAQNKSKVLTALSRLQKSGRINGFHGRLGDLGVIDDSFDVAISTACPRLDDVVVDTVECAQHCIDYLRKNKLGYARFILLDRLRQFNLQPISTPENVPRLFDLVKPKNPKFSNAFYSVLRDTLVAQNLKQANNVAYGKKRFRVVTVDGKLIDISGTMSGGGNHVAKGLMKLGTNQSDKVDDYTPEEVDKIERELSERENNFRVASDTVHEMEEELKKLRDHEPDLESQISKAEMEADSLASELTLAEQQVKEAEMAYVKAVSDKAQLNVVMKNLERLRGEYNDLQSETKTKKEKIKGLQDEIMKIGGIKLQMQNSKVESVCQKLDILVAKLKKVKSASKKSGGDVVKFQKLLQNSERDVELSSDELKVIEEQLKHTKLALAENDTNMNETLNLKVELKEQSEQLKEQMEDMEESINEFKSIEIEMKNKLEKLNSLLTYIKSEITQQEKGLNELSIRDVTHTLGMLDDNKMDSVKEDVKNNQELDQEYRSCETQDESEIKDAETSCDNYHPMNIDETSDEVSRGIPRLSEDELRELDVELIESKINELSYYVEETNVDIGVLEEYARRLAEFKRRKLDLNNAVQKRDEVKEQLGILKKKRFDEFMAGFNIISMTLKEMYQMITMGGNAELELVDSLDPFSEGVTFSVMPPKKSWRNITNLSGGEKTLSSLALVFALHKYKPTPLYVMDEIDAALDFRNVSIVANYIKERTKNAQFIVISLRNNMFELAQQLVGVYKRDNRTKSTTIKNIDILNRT
Briefly: tandem affinity co-purification (Ni-NTA, Strep-Trap) + SEC; five condensin subunits co-overexpressed in yeast; extract in 500 mM NaCl, 10 mM Tris-HCl pH 8.0, 10% glycerol; Ni-NTA (His tags on Brn1 and Ycg1), then Strep-Trap HP (3xStrepTagII on Smc4), then Superose 6 10/300 in 200 mM NaCl, 50 mM Tris-HCl pH 8.0; subunits seen by SDS-PAGE and Coomassie staining. The conditions noted are these: remark: other sources report otherwise.

B1: Ycg1-3xFLAG-9xHIS, Q06680 1-1035 (protein)
chain: MQDPDGIDINTKIFNSVAEVFQKAQGSYAGHRKHIAVLKKIQSKAVEQGYEDAFNFWFDKLVTKILPLKKNEIIGDRIVKLVAAFIASLERELILAKKQNYKLTNDEEGIFSRFVDQFIRHVLRGVESPDKNVRFRVLQLLAVIMDNIGEIDESLFNLLILSLNKRIYDREPTVRIQAVFCLTKFQDEEQTEHLTELSDNEENFEATRTLVASIQNDPSAEVRRAAMLNLINDNNTRPYILERARDVNIVNRRLVYSRILKSMGRKCFDDIEPHIFDQLIEWGLEDRELSVRNACKRLIAHDWLNALDGDLIELLEKLDVSRSSVCVKAIEALFQSRPDILSKIKFPESIWKDFTVEIAFLFRAIYLYCLDNNITEMLEENFPEASKLSEHLNHYILLRYHHNDISNDSQSHFDYNTLEFIIEQLSIAAERYDYSDEVGRRSMLTVVRNMLALTTLSEPLIKIGIRVMKSLSINEKDFVTMAIEIINDIRDDDIEKQEQEEKIKSKKINRRNETSVDEEDENGTHNDEVNEDEEDDNISSFHSAVENLVQGNGNVSESDIINNLPPEKEASSATIVLCLTRSSYMLELVNTPLTENILIASLMDTLITPAVRNTAPNIRELGVKNLGLCCLLDVKLAIDNMYILGMCVSKGNASLKYIALQVIVDIFSVHGNTVVDGEGKVDSISLHKIFYKVLKNNGLPECQVIAAEGLCKLFLADVFTDDDLFETLVLSYFSPINSSNEALVQAFAFCIPVYCFSHPAHQQRMSRTAADILLRLCVLWDDLQSSVIPEVDREAMLKPNIIFQQLLFWTDPRNLVNQTGSTKKDTVQLTFLIDVLKIYAQIEKKEIKKMIITNINAIFLSSEQDYSTLKELLEYSDDIAENDNLDNVSKNALDKLRNNLNSLIEEINERSETQTKDENNTANDQYSSILGNSFNKSSNDTIEHAADITDGNNTELTKTTVNISAVDNTTEQSNSRKRTRSEAEQIDTSKNLENMSIQDTSTVAKNVSFVLPDEKSDAMSIDEEDKDSESFSEVC
As for B1, the binding result is “binds”.

The record behind these values is publication PMC6039025.
